The values that follow come from paper PMC12713192.

Amino acid sequences for entries named in this document (tags omitted). A change or cut given only in a name is not applied to a line headed by its entry. Chains listed by the source or under a name are the forms on record and can include a tag or linker.
UniProt Q13131: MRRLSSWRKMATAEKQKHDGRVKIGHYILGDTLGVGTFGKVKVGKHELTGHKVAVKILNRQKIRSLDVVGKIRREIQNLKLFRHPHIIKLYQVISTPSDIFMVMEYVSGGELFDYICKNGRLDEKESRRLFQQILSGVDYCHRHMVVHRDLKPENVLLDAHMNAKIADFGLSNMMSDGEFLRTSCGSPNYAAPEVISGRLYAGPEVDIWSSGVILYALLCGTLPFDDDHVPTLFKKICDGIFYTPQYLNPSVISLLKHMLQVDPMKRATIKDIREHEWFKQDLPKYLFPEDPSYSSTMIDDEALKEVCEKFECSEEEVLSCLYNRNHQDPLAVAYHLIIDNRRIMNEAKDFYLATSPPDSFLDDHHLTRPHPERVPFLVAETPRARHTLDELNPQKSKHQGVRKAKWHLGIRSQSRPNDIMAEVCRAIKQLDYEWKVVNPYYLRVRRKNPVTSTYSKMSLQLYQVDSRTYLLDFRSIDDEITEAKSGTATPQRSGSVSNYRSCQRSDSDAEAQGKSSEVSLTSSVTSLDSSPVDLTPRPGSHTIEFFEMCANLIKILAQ
Flag-AMPKα1, full length (Q13131, form named): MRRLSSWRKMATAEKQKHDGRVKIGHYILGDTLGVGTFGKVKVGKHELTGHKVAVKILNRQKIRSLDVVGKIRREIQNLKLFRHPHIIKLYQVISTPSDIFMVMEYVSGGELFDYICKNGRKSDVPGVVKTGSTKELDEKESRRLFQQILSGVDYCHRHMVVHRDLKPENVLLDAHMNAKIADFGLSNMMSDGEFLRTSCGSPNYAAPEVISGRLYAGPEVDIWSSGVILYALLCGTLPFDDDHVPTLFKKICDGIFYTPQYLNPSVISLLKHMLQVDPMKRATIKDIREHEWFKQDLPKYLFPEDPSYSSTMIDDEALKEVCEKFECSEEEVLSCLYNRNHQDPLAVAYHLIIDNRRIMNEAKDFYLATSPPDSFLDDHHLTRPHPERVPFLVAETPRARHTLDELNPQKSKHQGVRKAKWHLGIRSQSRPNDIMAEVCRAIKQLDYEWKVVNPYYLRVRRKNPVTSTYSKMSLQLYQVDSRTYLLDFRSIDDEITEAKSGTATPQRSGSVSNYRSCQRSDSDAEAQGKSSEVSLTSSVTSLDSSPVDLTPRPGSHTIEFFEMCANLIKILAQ
Flag-AMPKα1 P2 (Δ295-396 aa) (Q13131, form named): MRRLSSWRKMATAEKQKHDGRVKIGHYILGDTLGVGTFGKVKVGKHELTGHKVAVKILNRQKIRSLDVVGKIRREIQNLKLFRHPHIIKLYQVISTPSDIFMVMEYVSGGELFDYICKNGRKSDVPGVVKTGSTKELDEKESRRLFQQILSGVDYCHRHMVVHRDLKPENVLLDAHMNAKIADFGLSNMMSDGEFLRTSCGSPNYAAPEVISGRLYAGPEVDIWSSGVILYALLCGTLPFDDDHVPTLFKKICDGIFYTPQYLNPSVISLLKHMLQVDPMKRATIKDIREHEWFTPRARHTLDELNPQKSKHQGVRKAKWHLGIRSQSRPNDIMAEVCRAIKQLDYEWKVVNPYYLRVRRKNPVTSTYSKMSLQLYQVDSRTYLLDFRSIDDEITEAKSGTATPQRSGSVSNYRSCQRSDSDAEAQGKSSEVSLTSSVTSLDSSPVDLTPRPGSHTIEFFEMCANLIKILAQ
Flag-AMPKα1 P3 (Δ397-574 aa) (Q13131, form named): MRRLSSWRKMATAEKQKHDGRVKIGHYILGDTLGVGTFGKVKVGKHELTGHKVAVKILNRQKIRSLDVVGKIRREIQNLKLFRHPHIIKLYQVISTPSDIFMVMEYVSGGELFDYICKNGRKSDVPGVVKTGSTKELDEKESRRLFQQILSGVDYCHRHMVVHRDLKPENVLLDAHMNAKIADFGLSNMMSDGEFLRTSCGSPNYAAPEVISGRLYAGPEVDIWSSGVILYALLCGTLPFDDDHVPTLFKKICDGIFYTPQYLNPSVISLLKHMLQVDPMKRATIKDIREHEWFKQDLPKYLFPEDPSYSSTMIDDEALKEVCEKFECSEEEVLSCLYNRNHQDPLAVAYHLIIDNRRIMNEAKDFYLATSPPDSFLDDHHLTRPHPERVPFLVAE
UniProt Q96SW2: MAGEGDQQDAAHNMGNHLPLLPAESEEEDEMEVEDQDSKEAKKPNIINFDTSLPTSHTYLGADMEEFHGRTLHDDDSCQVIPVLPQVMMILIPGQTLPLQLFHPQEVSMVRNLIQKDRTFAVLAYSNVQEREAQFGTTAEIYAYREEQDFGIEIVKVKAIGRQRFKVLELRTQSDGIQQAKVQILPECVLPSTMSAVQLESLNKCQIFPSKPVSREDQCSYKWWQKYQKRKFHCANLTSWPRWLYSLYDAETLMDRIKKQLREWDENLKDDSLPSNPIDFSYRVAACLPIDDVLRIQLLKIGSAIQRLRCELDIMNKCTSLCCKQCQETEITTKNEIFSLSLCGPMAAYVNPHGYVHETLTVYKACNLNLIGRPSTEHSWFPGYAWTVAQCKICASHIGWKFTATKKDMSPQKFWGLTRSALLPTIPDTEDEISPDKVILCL

No constants are given. Whether binding was seen depends on the method and setting. In cells and extracts the contact can be indirect. Some entries that bind do so weakly or less than the wild type. For some of these results: Tags and fused reporters may be left off the sequences shown.

In assay [1] the target is Flag-AMPKα1, full length (human) (UniProt Q13131). The assay is described as follows: co-IP; HEK293T cells transfected with myc-KSR2 (wt) or myc-KSR2(373T), Flag-AMPKα1 and myc-CRBN for 48 h; immunoblotting.
In assay [2] the target is AMPKα1, endogenous (human (endogenous in HUVECs)) (UniProt Q13131). The assay is described as follows: co-IP; HUVECs transfected with increasing amounts of myc-KSR2 plasmid (0, 1, 2, 3 μg) for 48 h, MG132 (10 μM), oxLDL (100 μg/mL) 24 h; endogenous AMPKα1 and CRBN.
For assay [3] the target is unchanged. The assay is described as follows: co-IP; endogenous proteins in HUVECs, with or without oxLDL (100 μg/mL, 24 h); immunoprecipitation with AMPKα1 or control IgG antibodies; native lysis buffer, protein A/G magnetic beads, PBST washes.
Assay [4] has as its target Flag-AMPKα1 P2 (Δ295-396 aa) (human) (UniProt Q13131). The assay is described as follows: co-IP; HEK293T cells transfected with myc-KSR2 and full-length or truncated Flag-AMPKα1 for 48 h; immunoblotting. (In western blotting, separated proteins are transferred to a membrane and probed.)
The target of assay [5] is Flag-AMPKα1 P3 (Δ397-574 aa) (human) (UniProt Q13131). The assay is described as above.
Assay [6] deals with Flag-AMPKα1, full length (human) (UniProt Q13131). The assay is described as above.

As for “myc-CRBN, in HEK293T cells (from UniProt Q96SW2 1-442)”, the binding result in assay [1] was “binds”.
As to “CRBN, endogenous (from UniProt Q96SW2 1-442)”, the binding result in assay [2] is on record as “binds”.

B1: kinase suppressor of Ras 2 (KSR2), endogenous (protein, UniProt Q6VAB6 1-950)
chain: MDEENMTKSEEQQPLSLQKALQQCELVQNMIDLSISNLEGLRTKCATSNDLTQKEIRTLESKLVKYFSRQLSCKKKVALQERNAELDGFPQLRHWFRIVDVRKEVLEEISPGQLSLEDLLEMTDEQVCETVEKYGANREECARLNASLSCLRNVHMSGGNLSKQDWTIQWPTTETGKENNPVCPPEPTPWIRTHLSQSPRVPSKCVQHYCHTSPTPGAPVYTHVDRLTVDAYPGLCPPPPLESGHRSLPPSPRQRHAVRTPPRTPNIVTTVTPPGTPPMRKKNKLKPPGTPPPSSRKLIHLIPGFTALHRSKSHEFQLGHRVDEAHTPKAKKKSKPLNLKIHSSVGSCENIPSQQRSPLLSERSLRSFFVGHAPFLPSTPPVHTEANFSANTLSVPRWSPQIPRRDLGNSIKHRFSTKYWMSQTCTVCGKGMLFGLKCKNCKLKCHNKCTKEAPPCHLLIIHRGDPARLVRTESVPCDINNPLRKPPRYSDLHISQTLPKTNKINKDHIPVPYQPDSSSNPSSTTSSTPSSPAPPLPPSATPPSPLHPSPQCTRQQKNFNLPASHYYKYKQQFIFPDVVPVPETPTRAPQVILHPVTSNPILEGNPLLQIEVEPTSENEEVHDEAEESEDDFEEMNLSLLSARSFPRKASQTSIFLQEWDIPFEQLEIGELIGKGRFGQVYHGRWHGEVAIRLIDIERDNEDQLKAFKREVMAYRQTRHENVVLFMGACMSPPHLAIITSLCKGRTLYSVVRDAKIVLDVNKTRQIAQEIVKGMGYLHAKGILHKDLKSKNVFYDNGKVVITDFGLFSISGVLQAGRREDKLRIQNGWLCHLAPEIIRQLSPDTEEDKLPFSKHSDVFALGTIWYELHAREWPFKTQPAEAIIWQMGTGMKPNLSQIGMGKEISDILLFCWAFEQEERPTFTKLMDMLEKLPKRNRRLSHPGHFWKSAEL
Consider B1, for which the binding result in assay [3] is reported as “binds”.

B2: myc-KSR2 (wild type), in HEK293T cells (protein, UniProt Q6VAB6 1-950)
chain: B1 chain
Turning to B2, the binding result in assay [4], in assay [5] and in assay [6] was “binds” throughout.

B3: myc-KSR2 (wild type), in HUVECs (protein, UniProt Q6VAB6 1-950)
chain: B1 chain
For the molecule B3, in assay [2], the binding result was “binds”.
